Reference: patent publication US4496543A, “Polypeptides, processes for their production, pharmaceutical compositions comprising said polypeptides and their use” (Sandoz Ltd., priority 1982, dated 1985)
Part of at least one peptide drawing is inferred or uncertain, most often the ends.

Tested on: serum GH-level
Test: TEST I: depression of serum GH-levels in the rat (GH-secretion inhibiting activity)
Format: in vivo
Details: male rats under Nembutal narcosis, s.c., activity at 60 minutes, serum GH by radio-immuno-assay
Protocol: This test (TEST I) is carried out employing male rats under Nembutal narcosis. The test-substance is administered at varying, logarithmically staggered doses employing at least 4 rats per dose. The rats are decapitated 60 minutes after administration, the blood is collected and the serum GH-level determined by radio-immuno-assay.
The above test may be adapted to determine effectiveness over prolonged periods of time, e.g. by decapitating 6 or 18 hours after administration. "Polypeptides of Type-T" as hereinbefore defined may be shown to be active in the above described test method when administered at dosages in the aforesaid range, over longer periods of time, e.g. up to 18 hours.

SMILES: C[C@@H](O)[C@@H]1NC(=O)[C@H](CCCCN)NC(=O)[C@@H](Cc2c[nH]c3ccccc23)NC(=O)[C@H](Cc2ccccc2)NC(=O)[C@@H](NC(=O)[C@@H](Cc2ccccc2)NCc2ccccc2)CSSC[C@@H](C(=O)N[C@H](CO)[C@@H](C)O)NC1=O [Example 1]
- ID50 in TEST I (amount of compound required to effect 50% reduction of the GH-level compared with untreated controls): 0,02 μg/kg
